Assay [1] concerns the target T1, PIP4K2A overexpressed in HEK293T cells (human) (UniProt P48426).
T1 sequence: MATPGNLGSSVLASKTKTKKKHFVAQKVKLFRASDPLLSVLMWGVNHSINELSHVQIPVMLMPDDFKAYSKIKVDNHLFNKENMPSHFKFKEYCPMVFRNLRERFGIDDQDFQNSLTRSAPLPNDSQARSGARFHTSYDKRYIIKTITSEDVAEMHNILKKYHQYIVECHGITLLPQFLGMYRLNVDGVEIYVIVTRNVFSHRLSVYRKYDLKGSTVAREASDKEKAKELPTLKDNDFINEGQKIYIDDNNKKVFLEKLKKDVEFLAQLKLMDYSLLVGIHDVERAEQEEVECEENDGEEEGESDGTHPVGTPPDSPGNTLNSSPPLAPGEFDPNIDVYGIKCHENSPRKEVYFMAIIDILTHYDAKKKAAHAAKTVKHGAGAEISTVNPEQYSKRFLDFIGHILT
In words: co-IP; lysate of HEK293T cells overexpressing PIP4K2A (10 mM Tris pH 7.5, 150 mM NaCl, 10% glycerol); IP with anti-PIP4K2A (SC-100406) on Protein G magnetic beads, 4°C, 16 h; mouse IgG as control; blot with anti-eIF4EBP1.

Protein sequences, listed by entry. Tags and fused reporters are not part of them.
UniProt Q13541: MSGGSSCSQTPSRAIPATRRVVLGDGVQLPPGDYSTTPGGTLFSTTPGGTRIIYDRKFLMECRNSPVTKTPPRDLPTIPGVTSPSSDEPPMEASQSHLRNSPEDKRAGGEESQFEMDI

Assay [2] has as its target GST eIF4EBP1 (UniProt Q13541). Description: pull-down; His-PIP4K2A and GST fusion co-expressed in E. coli BL21-codon+; GST fusion held on glutathione resin, washed several times; His-PIP4K2A detected by Western blot (anti-His or anti-PIP4K2A).

These are yes or no findings as the source states them, for the method shown. In cells and extracts the contact can be indirect. Some results given as binding are weak or reduced against the parent protein; the word gives no strength. For some assays here: Sequences can lack the tags named with a protein.

In the case of “eIF4EBP1 (in HEK293T lysate) (from UniProt Q13541 1-118)”, the binding result in assay [1] is on record as “binds”.

B1: His-tagged PIP4K2A (phosphatidylinositol 5-phosphate 4-kinase) (enzyme, UniProt P48426 1-406)
chain: T1 sequence
For B1, the binding entry in assay [2] was “binds”.

The values are drawn from article PMC8194828.
